Assay results: publication PMC10912200
These are yes or no findings as the source states them, for the method shown.

The chains behind the UniProt entries cited, without tags or fusion partners. Where a name states a change or a piece, a line headed by the entry shows the natural chain unless it says otherwise. A line that says so, or that is headed by a name, gives the form on record, which may keep a tag or linker.
Fc-His-TMPRSS2^ECD (O15393, form named): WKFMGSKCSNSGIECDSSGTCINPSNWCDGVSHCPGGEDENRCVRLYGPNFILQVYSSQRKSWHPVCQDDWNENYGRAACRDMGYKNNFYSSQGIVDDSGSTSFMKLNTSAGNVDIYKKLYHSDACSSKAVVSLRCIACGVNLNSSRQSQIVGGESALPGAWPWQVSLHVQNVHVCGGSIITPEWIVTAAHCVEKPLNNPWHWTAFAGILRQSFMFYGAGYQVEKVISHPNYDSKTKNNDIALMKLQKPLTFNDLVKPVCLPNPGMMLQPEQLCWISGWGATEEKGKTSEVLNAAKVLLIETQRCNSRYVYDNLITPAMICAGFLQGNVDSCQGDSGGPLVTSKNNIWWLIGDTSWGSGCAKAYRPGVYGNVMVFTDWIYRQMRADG

Molecular target: Fc-His-TMPRSS2^ECD (UniProt O15393)
Assay: pull-down; both purified

TcsH^1832-2209, His-tagged (from UniProt M9ZTT7 1832-2209) (domain or fragment)
binding: no binding (tested: 10 nM)
